From article doi:10.1101/2025.08.12.669905
Where two headings read alike, the source gives them in different places. These are yes or no findings as the source states them, for the method shown. Binding seen in cells or lysates may run through a third protein. Some entries that bind do so weakly or less than the wild type. For some assays here: Sequences can lack the tags named with a protein.

By UniProt entry, the sequences of proteins in these tests, tags left out.
UniProt P25490: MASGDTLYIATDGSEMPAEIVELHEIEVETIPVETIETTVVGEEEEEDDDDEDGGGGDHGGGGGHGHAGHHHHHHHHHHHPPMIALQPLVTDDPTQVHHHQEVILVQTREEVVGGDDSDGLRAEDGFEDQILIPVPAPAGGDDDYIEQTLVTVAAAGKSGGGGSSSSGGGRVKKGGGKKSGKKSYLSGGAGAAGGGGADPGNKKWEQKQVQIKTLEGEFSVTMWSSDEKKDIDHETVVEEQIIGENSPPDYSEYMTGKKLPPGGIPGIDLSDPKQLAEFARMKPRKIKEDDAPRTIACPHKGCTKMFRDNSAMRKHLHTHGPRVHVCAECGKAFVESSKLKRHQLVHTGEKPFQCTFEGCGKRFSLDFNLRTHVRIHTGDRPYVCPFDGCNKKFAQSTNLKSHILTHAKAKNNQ
UniProt Q15648: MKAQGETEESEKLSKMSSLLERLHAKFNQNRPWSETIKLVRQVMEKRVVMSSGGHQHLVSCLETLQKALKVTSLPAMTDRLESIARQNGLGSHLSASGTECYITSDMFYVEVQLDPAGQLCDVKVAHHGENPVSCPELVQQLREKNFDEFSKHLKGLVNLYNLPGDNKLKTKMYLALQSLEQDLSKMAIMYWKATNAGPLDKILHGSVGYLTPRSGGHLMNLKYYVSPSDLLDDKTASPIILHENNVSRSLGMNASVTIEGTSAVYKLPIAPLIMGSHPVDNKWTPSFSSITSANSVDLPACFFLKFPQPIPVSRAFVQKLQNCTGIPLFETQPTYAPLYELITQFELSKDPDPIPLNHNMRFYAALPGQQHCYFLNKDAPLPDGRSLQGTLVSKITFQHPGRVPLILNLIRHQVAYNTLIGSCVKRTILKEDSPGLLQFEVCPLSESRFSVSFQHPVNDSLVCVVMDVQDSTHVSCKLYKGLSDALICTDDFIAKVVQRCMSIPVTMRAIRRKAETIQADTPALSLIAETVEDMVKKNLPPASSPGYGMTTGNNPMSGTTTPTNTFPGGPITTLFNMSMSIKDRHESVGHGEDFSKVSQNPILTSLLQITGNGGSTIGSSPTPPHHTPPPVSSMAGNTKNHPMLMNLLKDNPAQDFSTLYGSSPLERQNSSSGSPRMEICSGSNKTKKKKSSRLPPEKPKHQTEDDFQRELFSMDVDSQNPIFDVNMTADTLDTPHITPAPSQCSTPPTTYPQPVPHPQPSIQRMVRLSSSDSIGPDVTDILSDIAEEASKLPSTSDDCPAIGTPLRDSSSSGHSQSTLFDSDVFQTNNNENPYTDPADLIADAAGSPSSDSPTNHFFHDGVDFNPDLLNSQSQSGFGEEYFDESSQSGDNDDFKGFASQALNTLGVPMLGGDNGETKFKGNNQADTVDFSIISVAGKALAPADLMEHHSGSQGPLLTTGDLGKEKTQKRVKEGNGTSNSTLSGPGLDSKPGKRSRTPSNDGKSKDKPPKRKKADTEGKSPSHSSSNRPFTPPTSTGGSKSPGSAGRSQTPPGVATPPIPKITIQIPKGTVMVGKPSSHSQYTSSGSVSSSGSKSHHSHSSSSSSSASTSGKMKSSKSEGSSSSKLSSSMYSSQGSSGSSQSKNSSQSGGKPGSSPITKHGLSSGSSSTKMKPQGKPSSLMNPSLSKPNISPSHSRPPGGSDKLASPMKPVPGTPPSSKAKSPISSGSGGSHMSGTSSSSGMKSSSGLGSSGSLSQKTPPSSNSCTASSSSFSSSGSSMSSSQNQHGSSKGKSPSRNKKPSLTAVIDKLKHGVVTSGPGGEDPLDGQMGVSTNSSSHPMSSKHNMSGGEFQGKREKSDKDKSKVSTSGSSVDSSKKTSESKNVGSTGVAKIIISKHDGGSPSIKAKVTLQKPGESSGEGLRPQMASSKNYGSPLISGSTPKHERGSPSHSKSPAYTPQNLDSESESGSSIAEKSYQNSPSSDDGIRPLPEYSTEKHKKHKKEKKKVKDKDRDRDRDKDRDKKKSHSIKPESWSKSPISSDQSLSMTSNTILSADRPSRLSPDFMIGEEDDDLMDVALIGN

Experiments:
Experiment in all cases: co-IP
[1] = target: T1, Mediator subunit MED16 (endogenous) (human (endogenous in 293T and HeLa)) (UniProt Q9Y2X0)
T1 sequence: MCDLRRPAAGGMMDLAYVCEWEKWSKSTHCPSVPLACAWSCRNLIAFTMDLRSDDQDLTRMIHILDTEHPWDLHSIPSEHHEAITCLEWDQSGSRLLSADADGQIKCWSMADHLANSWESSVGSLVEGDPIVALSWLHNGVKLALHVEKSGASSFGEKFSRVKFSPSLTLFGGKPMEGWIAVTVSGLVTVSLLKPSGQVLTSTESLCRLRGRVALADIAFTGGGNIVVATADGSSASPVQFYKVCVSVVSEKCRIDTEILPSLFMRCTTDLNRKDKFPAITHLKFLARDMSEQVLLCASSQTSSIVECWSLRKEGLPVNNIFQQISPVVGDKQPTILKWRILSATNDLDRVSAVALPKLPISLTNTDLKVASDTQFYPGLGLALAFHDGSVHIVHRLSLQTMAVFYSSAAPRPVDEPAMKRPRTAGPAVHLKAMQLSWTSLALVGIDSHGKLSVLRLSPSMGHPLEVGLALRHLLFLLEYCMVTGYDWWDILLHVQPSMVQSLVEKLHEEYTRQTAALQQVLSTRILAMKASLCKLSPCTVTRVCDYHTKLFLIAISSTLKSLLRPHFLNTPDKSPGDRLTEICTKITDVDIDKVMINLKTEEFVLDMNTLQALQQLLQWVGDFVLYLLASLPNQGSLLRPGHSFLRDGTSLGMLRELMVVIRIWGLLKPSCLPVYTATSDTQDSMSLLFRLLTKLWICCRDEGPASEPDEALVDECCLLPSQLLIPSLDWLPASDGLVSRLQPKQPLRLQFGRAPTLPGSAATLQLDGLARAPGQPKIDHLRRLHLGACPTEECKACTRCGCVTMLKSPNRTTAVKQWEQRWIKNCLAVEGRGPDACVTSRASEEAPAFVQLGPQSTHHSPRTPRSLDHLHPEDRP

[2] = target: T1, Mediator subunit MED16 (endogenous) (human (endogenous in 293T and HeLa)); remark: listed apart in the source
[3] = target: T2, Flag-MED16, full length (human) (UniProt Q9Y2X0)
T2 sequence: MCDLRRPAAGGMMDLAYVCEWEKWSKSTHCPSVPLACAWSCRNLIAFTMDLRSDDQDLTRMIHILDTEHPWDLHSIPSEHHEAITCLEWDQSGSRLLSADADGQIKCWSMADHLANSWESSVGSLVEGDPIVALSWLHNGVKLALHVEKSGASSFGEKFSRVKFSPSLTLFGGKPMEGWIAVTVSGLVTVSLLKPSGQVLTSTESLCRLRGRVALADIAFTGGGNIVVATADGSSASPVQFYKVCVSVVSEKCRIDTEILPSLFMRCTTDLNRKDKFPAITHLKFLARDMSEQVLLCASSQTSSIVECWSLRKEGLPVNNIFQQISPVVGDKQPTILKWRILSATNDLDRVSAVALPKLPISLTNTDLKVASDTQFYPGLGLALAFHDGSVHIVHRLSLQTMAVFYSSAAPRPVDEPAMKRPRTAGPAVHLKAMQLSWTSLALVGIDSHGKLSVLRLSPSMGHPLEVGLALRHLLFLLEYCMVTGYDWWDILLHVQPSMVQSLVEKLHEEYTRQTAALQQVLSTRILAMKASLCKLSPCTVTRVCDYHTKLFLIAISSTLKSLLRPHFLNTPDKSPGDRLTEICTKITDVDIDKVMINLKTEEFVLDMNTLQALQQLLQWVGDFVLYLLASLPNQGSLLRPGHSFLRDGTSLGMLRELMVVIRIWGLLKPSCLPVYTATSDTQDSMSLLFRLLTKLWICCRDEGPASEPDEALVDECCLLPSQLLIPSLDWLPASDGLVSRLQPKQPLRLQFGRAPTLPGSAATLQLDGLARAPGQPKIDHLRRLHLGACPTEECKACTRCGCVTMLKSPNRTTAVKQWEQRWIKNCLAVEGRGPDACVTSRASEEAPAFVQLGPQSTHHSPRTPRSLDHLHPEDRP

[4] = target: T1, Mediator subunit MED16 (endogenous) (human (endogenous in 293T and HeLa)); remark: listed apart in the source
[5] = target: T3, Flag-UBP1, full length (human) (UniProt Q9NZI7)
T3 sequence: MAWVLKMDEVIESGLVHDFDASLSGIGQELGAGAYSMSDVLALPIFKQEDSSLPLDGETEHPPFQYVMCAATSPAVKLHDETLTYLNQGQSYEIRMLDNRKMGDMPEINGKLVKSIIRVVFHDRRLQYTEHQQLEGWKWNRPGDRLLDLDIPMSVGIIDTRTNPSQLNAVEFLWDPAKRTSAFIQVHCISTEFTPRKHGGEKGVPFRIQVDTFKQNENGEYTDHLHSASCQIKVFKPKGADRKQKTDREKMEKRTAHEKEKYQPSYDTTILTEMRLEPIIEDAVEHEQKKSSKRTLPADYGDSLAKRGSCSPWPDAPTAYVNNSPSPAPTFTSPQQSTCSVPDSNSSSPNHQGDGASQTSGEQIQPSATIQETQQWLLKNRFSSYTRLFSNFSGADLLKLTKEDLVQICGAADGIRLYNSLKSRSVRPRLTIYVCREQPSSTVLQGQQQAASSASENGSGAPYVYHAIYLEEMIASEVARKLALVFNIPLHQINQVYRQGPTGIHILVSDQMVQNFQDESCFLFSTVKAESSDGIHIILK

[6] = target: T2, Flag-MED16, full length (human); remark: listed apart in the source

Row | Molecule | binding [1] | binding [2] | binding [3] | binding [4] | binding [5] | binding [6]
1 | YY1 (endogenous) (from UniProt P25490 1-414) | binds | binds | – | – | – | –
2 | MED1 (endogenous) (from UniProt Q15648 1-1581) | – | binds | binds | – | – | –
3 | MED23 (endogenous) (protein, UniProt Q9ULK4 1-1368) METQLQSIFEEVVKTEVIEEAFPGMFMDTPEDEKTKLISCLGAFRQFWGGLSQESHEQCIQWIVKFIHGQHSPKRISFLYDCLAMAVETGLLPPRLVCESLINSDTLEWERTQLWALTFKLVRKIIGGVDYKGVRDLLKVILEKILTIPNTVSSAVVQQLLAAREVIAYILERNACLLPAYFAVTEIRKLYPEGKLPHWLLGNLVSDFVDTFRPTARINSICGRCSLLPVVNNSGAICNSWKLDPATLRFPLKGLLPYDKDLFEPQTALLRYVLEQPYSRDMVCNMLGLNKQHKQRCPVLEDQLVDLVVYAMERSETEEKFDDGGTSQLLWQHLSSQLIFFVLFQFASFPHMVLSLHQKLAGRGLIKGRDHLMWVLLQFISGSIQKNALADFLPVMKLFDLLYPEKEYIPVPDINKPQSTHAFAMTCIWIHLNRKAQNDNSKLQIPIPHSLRLHHEFLQQSLRNKSLQMNDYKIALLCNAYSTNSECFTLPMGALVETIYGNGIMRIPLPGTNCMASGSITPLPMNLLDSLTVHAKMSLIHSIATRVIKLAHAKSSVALAPALVETYSRLLVYMEIESLGIKGFISQLLPTVFKSHAWGILHTLLEMFSYRMHHIQPHYRVQLLSHLHTLAAVAQTNQNQLHLCVESTALRLITALGSSEVQPQFTRFLSDPKTVLSAESEELNRALILTLARATHVTDFFTGSDSIQGTWCKDILQTIMSFTPHNWASHTLSCFPGPLQAFFKQNNVPQESRFNLKKNVEEEYRKWKSMSNENDIITHFSMQGSPPLFLCLLWKMLLETDHINQIGYRVLERIGARALVAHVRTFADFLVYEFSTSAGGQQLNKCIEILNDMVWKYNIVTLDRLILCLAMRSHEGNEAQVCYFIIQLLLLKPNDFRNRVSDFVKENSPEHWLQNDWHTKHMNYHKKYPEKLYFEGLAEQVDPPVQIQSPYLPIYFGNVCLRFLPVFDIVIHRFLELLPVSKSLETLLDHLGGLYKFHDRPVTYLYNTLHYYEMHLRDRAFLKRKLVHAIIGSLKDNRPQGWCLSDTYLKCAMNAREENPWVPDDTYYCRLIGRLVDTMAGKSPGPFPNCDWRFNEFPNPAAHALHVTCVELMALAVSGKEVGNALLNVVLKSQPLVPRENITAWMNAIGLIITALPEPYWIVLHDRIVSVISSPSLTSETEWVGYPFRLFDFTACHQSYSEMSCSYTLALAHAVWHHSSIGQLSLIPKFLTEVLLPIVKTEFQLLYVYHLVGPFLQRFQQERTRCMIEIGVAFYDMLLNVDQCSTHLNYMDPICDFLYHMKYMFTGDSVKEQVEKIICNLKPALKLRLRFITHISKMEPAAVPPQAMNSGSPAPQSNQVPVSLPVTQ | – | – | – | binds | – | –
4 | TFCP2 (endogenous) (protein, UniProt Q12800 1-502) MAWALKLPLADEVIESGLVQDFDASLSGIGQELGAGAYSMSDVLALPIFKQEESSLPPDNENKILPFQYVLCAATSPAVKLHDETLTYLNQGQSYEIRMLDNRKLGELPEINGKLVKSIFRVVFHDRRLQYTEHQQLEGWRWNRPGDRILDIDIPMSVGIIDPRANPTQLNTVEFLWDPAKRTSVFIQVHCISTEFTMRKHGGEKGVPFRVQIDTFKENENGEYTEHLHSASCQIKVFKPKGADRKQKTDREKMEKRTPHEKEKYQPSYETTILTECSPWPEITYVNNSPSPGFNSSHSSFSLGEGNGSPNHQPEPPPPVTDNLLPTTTPQEAQQWLHRNRFSTFTRLFTNFSGADLLKLTRDDVIQICGPADGIRLFNALKGRMVRPRLTIYVCQESLQLREQQQQQQQQQQKHEDGDSNGTFFVYHAIYLEELTAVELTEKIAQLFSISPCQISQIYKQGPTGIHVLISDEMIQNFQEEACFILDTMKAETNDSYHIILK | binds | – | – | binds | binds | binds
5 | UBP1 (endogenous) (protein, UniProt Q9NZI7 1-540) MAWVLKMDEVIESGLVHDFDASLSGIGQELGAGAYSMSDVLALPIFKQEDSSLPLDGETEHPPFQYVMCAATSPAVKLHDETLTYLNQGQSYEIRMLDNRKMGDMPEINGKLVKSIIRVVFHDRRLQYTEHQQLEGWKWNRPGDRLLDLDIPMSVGIIDTRTNPSQLNAVEFLWDPAKRTSAFIQVHCISTEFTPRKHGGEKGVPFRIQVDTFKQNENGEYTDHLHSASCQIKVFKPKGADRKQKTDREKMEKRTAHEKEKYQPSYDTTILTEMRLEPIIEDAVEHEQKKSSKRTLPADYGDSLAKRGSCSPWPDAPTAYVNNSPSPAPTFTSPQQSTCSVPDSNSSSPNHQGDGASQTSGEQIQPSATIQETQQWLLKNRFSSYTRLFSNFSGADLLKLTKEDLVQICGAADGIRLYNSLKSRSVRPRLTIYVCREQPSSTVLQGQQQAASSASENGSGAPYVYHAIYLEEMIASEVARKLALVFNIPLHQINQVYRQGPTGIHILVSDQMVQNFQDESCFLFSTVKAESSDGIHIILK | binds | – | – | binds | – | –
